In patent US10806694B2, “Nanoparticles for photodynamic therapy, X-ray induced photodynamic therapy, radiotherapy, radiodynamic therapy, chemotherapy, immunotherapy, and any combination thereof” (The University of Chicago, priority 2014, dated 2020):

Test: Singlet oxygen generation with Singlet Oxygen Sensor Green (SOSG) under LED irradiation
Format: physicochemical
Conditions: for A (fitting parameter for 1O2 generation curve): 0.1 W/cm^2, 650 nm LED for DBC-UiO and H2DBC, 640 nm for the others; for Relative yield of 1O2 generation: normalized based on PpIX
Description: A light-emitting diode (LED) array with peak emission at 640 nm was used as the light source of singlet oxygen generation. The irradiance of LED is 100 mW/cm^2. Singlet oxygen sensor green (SOSG) reagent (Life Technologies, Carlsbad, Calif., United States of America) was employed for the detection of singlet oxygen. H2DBP and DBP-UiO samples were prepared in 5 μM solutions/suspensions in HBSS buffer (for DBP-UiO samples, the concentration was calculated as ligand equivalents). To 2 mL each of these solutions/suspensions, SOSG stock solution (5 μL at 5 mM) was added (final concentration=12.5 μM) before fluorescence measurement.
For a typical measurement, fluorescence intensity was acquired on a spectrofluorophotometer (RF-5301PC, Shimadzu Corporation, Kyoto, Japan) with excitation at 504 nm and emission at 525 nm (slit width 3 nm/5 nm for ex/em). Fluorescence was measured after irradiation by LED for 0 (as background), 10 s, 20 s, 30 s, 1 min, 1.5 min, 2 min, 2.5 min, 3 min, 3.5 min, 4 min, 4.5 min, 5 min, 6 min and 7 min.
Singlet oxygen generation efficiencies of H2DBP and DBP-UiO were determined using Singlet Oxygen Sensor Green (SOSG, Life Technologies). After exposure to a LED light source (peak emission at 640 nm, energy irradiance of 100 mW/cm^2), the […] reagent SOSG reacted with ^1O2 to generate green fluorescence which was quantified with a fluorimeter. The fluorescence intensity was plotted against irradiation time. The ^1O2 generation was depicted with an exponential function that corresponded to a pseudo first-order process. The ^1O2 generation curve was fitted with the following equation: IF=A(1−e^−kt) (1) Where IF is fluorescence intensity and t represents irradiation time while A and k are fitting parameters (for detailed derivations, see SI). The fitted equations for H2DBP and DBP-UiO are: IH2DBP=68.3×(1−e^−0.0015t) (2) IDBP-UiO=87.6×(1−e^−0.0031t) (3)
Singlet Oxygen Sensor Green (SOSG) was employed to determine ^1O2 generation efficiencies of H2DBC and DBC-UiO. SOSG reacted with generated ^1O2 to give green fluorescence (λem=525 nm) that was quantified with a fluorometer. For comparison, ^1O2 generation efficiency of H2DBP, DBP-UiO and protoporphyrin IX (PpIX) were also determined. The fluorescence plotted against irradiation time was fitted with an exponential function (Eq 1): IF=A(1−e^−kt) (Eq 1) indicating a pseudo first-order ^1O2 generation process. In Eq 1, IF is fluorescence intensity and t is irradiation time while A and k are fitting parameters. The total ^1O2 generation yield was normalized based on that of PpIX to compare the overall photosensitization efficiency. DBC-UiO is ˜3 times as efficient as DBP-UiO in generating ^1O2.

Row | Compound | A (fitting parameter for 1O2 generation curve) | Relative yield of 1O2 generation | A (fitting parameter of singlet oxygen generation) (5 μM in HBSS, 640 nm LED 100 mW/cm^2)
1 | 5, 15-di(p-benzoato)chlorin [H2DBC] | 102 | 4.3 | –
2 | O=C(O)c1ccc(-c2c3nc(cc4ccc([nH]4)c(-c4ccc(C(=O)O)cc4)c4nc(cc5ccc2[nH]5)C=C4)C=C3)cc1 [H2DBP, 5,15-di(p-benzoato)porphyrin] | 101 | 1.8 | 68.3
